# Experimental data from PubChem BioAssay AID192 (DTP/NCI, 2004).
# The list is a part of this screen's results and no random one: its compounds were picked by chemical class. Other doses and runs of a compound may be missing. T/C: endpoint of the treated group in % of that of the vehicle group. For survival time, the PubChem record calls one and a half times the control and up active, and a quarter to a half above the control has no call in these data; cut-offs in other NCI protocols can differ. Schedule codes are those of the source, read here as Q, the interval in days (D) or hours (H), X, the number of doses. Some entries show no survivor count and are marked so; the dose need not have been tolerated. Some entries hold several experiments; their values stand side by side, smallest first.
# System: BDF1 mice, B16 melanoma ip, median survival T/C
# Experiment: NCI In Vivo Anticancer Drug Screen. Data for tumor model B16 Melanoma (intraperitoneal) in B6D2F1 (BDF1) mice
# Conditions: T/C endpoint: median survival time, higher T/C = longer survival
# Description: The antitumor activity of compounds was measured in mice bearing transplantable tumors. Survival or tumor size were measured and the results are expressed as the measurement made in the treated group (T) divided by the measurement made in the vehicle treated control group (C). The tumor model used in this assay is B16 Melanoma (intraperitoneal) in B6D2F1 (BDF1) mice
structure (smiles),measurement,setting,value
CC(=O)OCC12CCC(C)=CC1OC1C(O)C(OC(C)=O)C2(C)C12CO2 (stereo unspecified),T/C,"dose: 0.13 mg/kg/injection, schedule: Q01DX009 (ip), vehicle: distilled water + Tween-80",121 % of control [survivor count not shown]
same,T/C,"dose: 0.13 mg/kg/injection, schedule: Q01DX009 (ip), vehicle: water",120 % of control [survivor count not shown]
same,T/C,"dose: 0.25 mg/kg/injection, schedule: Q01DX009 (ip), vehicle: Klucel (hydroxypropylcellulose) (HPC)",139 % of control [survivor count not shown]
same,T/C,"dose: 0.25 mg/kg/injection, schedule: Q01DX009 (ip), vehicle: distilled water + Tween-80",114 % of control [survivor count not shown]
same,T/C,"dose: 0.25 mg/kg/injection, schedule: Q01DX009 (ip), vehicle: water, evaluated on day 45",121 % of control [survivor count not shown]
same,T/C,"dose: 0.25 mg/kg/injection, schedule: Q01DX009 (ip), vehicle: water, evaluated on day 60",129 % of control [survivor count not shown]
same,T/C,"dose: 0.5 mg/kg/injection, schedule: Q01DX009 (ip), vehicle: Klucel (hydroxypropylcellulose) (HPC)",127 % of control [survivor count not shown]
same,T/C,"dose: 0.5 mg/kg/injection, schedule: Q01DX009 (ip), vehicle: distilled water + Tween-80",133 % of control [survivor count not shown]
same,T/C,"dose: 0.5 mg/kg/injection, schedule: Q01DX009 (ip), vehicle: saline, evaluated on day 45",125 % of control [survivor count not shown]
same,T/C,"dose: 0.5 mg/kg/injection, schedule: Q01DX009 (ip), vehicle: saline, evaluated on day 60",133 [survivor count not shown] and 135 % of control [survivor count not shown]
same,T/C,"dose: 0.5 mg/kg/injection, schedule: Q01DX009 (ip), vehicle: water, evaluated on day 45",131 [survivor count not shown] and 140 % of control [survivor count not shown]
same,T/C,"dose: 0.5 mg/kg/injection, schedule: Q01DX009 (ip), vehicle: water, evaluated on day 60",135 % of control [survivor count not shown]
same,T/C,"dose: 1.0 mg/kg/injection, schedule: Q01DX009 (ip), vehicle: Klucel (hydroxypropylcellulose) (HPC)",141 % of control [survivor count not shown]
same,T/C,"dose: 1.0 mg/kg/injection, schedule: Q01DX009 (ip), vehicle: distilled water + Tween-80",130 % of control [survivor count not shown]
same,T/C,"dose: 1.0 mg/kg/injection, schedule: Q01DX009 (ip), vehicle: saline, evaluated on day 45",118 % of control [survivor count not shown]
same,T/C,"dose: 1.0 mg/kg/injection, schedule: Q01DX009 (ip), vehicle: saline, evaluated on day 60","126 [survivor count not shown], 134 [survivor count not shown], 138 % of control [survivor count not shown]"
same,T/C,"dose: 1.0 mg/kg/injection, schedule: Q01DX009 (ip), vehicle: water, evaluated on day 45",131 [survivor count not shown] and 140 % of control [survivor count not shown]
same,T/C,"dose: 1.0 mg/kg/injection, schedule: Q01DX009 (ip), vehicle: water, evaluated on day 60",142 % of control [survivor count not shown]
same,T/C,"dose: 1.3 mg/kg/injection, schedule: Q04DX003 (sc), vehicle: saline + alcohol",115 % of control [survivor count not shown]
same,T/C,"dose: 1.5 mg/kg/injection, schedule: Q04DX003 (ip), vehicle: other",108 % of control [survivor count not shown]
same,T/C,"dose: 2.0 mg/kg/injection, schedule: Q01DX009 (ip), vehicle: Klucel (hydroxypropylcellulose) (HPC)",140 % of control [survivor count not shown]
same,T/C,"dose: 2.0 mg/kg/injection, schedule: Q01DX009 (ip), vehicle: distilled water + Tween-80",133 % of control [survivor count not shown]
same,T/C,"dose: 2.0 mg/kg/injection, schedule: Q01DX009 (ip), vehicle: saline, evaluated on day 45",125 % of control [survivor count not shown]
same,T/C,"dose: 2.0 mg/kg/injection, schedule: Q01DX009 (ip), vehicle: saline, evaluated on day 60",101 [survivor count not shown] and 135 % of control [survivor count not shown]
same,T/C,"dose: 2.0 mg/kg/injection, schedule: Q01DX009 (ip), vehicle: water, evaluated on day 45",130 % of control [survivor count not shown]
same,T/C,"dose: 2.0 mg/kg/injection, schedule: Q01DX009 (ip), vehicle: water, evaluated on day 60",138 % of control [survivor count not shown]
same,T/C,"dose: 2.16 mg/kg/injection, schedule: Q04DX003 (sc), vehicle: saline + alcohol",125 % of control [survivor count not shown]
same,T/C,"dose: 2.59 mg/kg/injection, schedule: Q04DX003 (ip), vehicle: saline + alcohol",115 % of control [survivor count not shown]
same,T/C,"dose: 3.0 mg/kg/injection, schedule: Q04DX003 (ip), vehicle: other",107 % of control [survivor count not shown]
same,T/C,"dose: 3.6 mg/kg/injection, schedule: Q04DX003 (sc), vehicle: saline + alcohol",120 % of control [survivor count not shown]
same,T/C,"dose: 4.0 mg/kg/injection, schedule: Q01DX009 (ip), vehicle: saline, evaluated on day 45",118 % of control [survivor count not shown]
same,T/C,"dose: 4.0 mg/kg/injection, schedule: Q01DX009 (ip), vehicle: saline, evaluated on day 60",119 [survivor count not shown] and 138 % of control [survivor count not shown]
same,T/C,"dose: 4.32 mg/kg/injection, schedule: Q04DX003 (ip), vehicle: saline + alcohol",108 [survivor count not shown] and 125 % of control [survivor count not shown]
same,T/C,"dose: 6.0 mg/kg/injection, schedule: Q04DX003 (sc), vehicle: saline + alcohol",111 % of control [survivor count not shown]
same,T/C,"dose: 7.2 mg/kg/injection, schedule: Q04DX003 (ip), vehicle: saline + alcohol",115 % of control [survivor count not shown]
same,T/C,"dose: 12.0 mg/kg/injection, schedule: Q04DX003 (ip), vehicle: saline + alcohol",108 % of control [survivor count not shown]
